Laboratory results from publication PMC12822480.
These are yes or no findings as the source states them, for the method shown. Binding seen in cells or lysates may run through a third protein. Some entries that bind do so weakly or less than the wild type.

Biological target: T1, interleukin‐11 (IL‐11) (human (endogenous in 231‐LC cells)) (UniProt P20809)
T1 sequence: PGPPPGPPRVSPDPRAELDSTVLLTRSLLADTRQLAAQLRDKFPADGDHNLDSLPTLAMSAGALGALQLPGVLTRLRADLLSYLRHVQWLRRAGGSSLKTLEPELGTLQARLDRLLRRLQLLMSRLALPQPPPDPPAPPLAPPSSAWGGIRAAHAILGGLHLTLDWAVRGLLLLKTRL
Assay: co-IP; concentrated serum‐free conditioned medium of 231‐LC cells (10 kDa filter) incubated with IL‐11 antibody or IgG isotype control in IP buffer at 4 °C for 12 h; protein A/G agarose beads for 2 h at room temperature; eluate analysed by Western blot

binding: binds
B1: soluble IL‐11 receptor (sIL‐11R) (receptor, UniProt Q14626 24-370)
chain: SPCPQAWGPPGVQYGQPGRSVKLCCPGVTAGDPVSWFRDGEPKLLQGPDSGLGHELVLAQADSTDEGTYICQTLDGALGGTVTLQLGYPPARPVVSCQAADYENFSCTWSPSQISGLPTRYLTSYRKKTVLGADSQRRSPSTGPWPCPQDPLGAARCVVHGAEFWSQYRINVTEVNPLGASTRLLDVSLQSILRPDPPQGLRVESVPGYPRRLRASWTYPASWPCQPHFLLKFRLQYRPAQHPAWSTVEPAGLEEVITDAVAGLPHAVRVSARDFLDAGTWSTWSPEAWGTPSTGTIPKEIPAWGQLHTQPEVEPQVDSPAPPRPSLQPHPRLLDHRDSVEQVAVLA
